The list shows a part of the results.

By UniProt entry, the sequences of proteins in these tests, tags left out.
UniProt Q0JBA9, entry or part of it: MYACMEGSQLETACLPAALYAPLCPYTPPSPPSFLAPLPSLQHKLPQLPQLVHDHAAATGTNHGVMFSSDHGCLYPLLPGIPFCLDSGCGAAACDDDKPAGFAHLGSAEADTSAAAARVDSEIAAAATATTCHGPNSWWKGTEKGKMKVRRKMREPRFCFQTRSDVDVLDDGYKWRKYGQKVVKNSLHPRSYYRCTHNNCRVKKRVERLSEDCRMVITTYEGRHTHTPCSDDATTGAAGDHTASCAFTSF

Our source for the binding signal values is paper PMC7819943, “Rice protein-binding microarrays: a tool to detect cis-acting elements near promoter regions in rice”.

This assay has as its target OsWRKY34 (Oryza sativa, UniProt Q0JBA9 1-250). Put plainly: protein-binding microarray (RPBM); PBS, 2% BSA, 51.3 ng/ul salmon testes DNA, 50 uM zinc acetate, 200 nM TF, 25 C, 1 h; high values mean tight binding. As to conditions: protein: recombinant; tags: N-terminal polyhistidine and DsRed monomer fusion (pET32a); label: CyDye5-dUTP incorporated in the synthesized complementary strand; 3' TTTTT single-stranded linker to array surface; dsDNA, one strand shown. The method in brief:
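Ni–NTA purification followed expression in E. coli BL21-CodonPlus of transcription factors fused N-terminally to a polyhistidine tag and DsRed. At 200 nM in PBS with 2% BSA, salmon testes DNA and 50 µM zinc acetate, the protein was incubated for 1 h at 25 °C with a custom Agilent array that had been primer-extended with Cy5-dUTP and blocked with 2% BSA. After washing, the array was read on an Axon 4000B scanner. The binding signal is per-feature fluorescence intensity in arbitrary units.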
On to “ACCCTGTTGCTCATATTTTTTATTGGATTTCCCTTTTTTTCGGAGTCACCTAGTGCAG”, for which the binding signal is 12000 fluorescence intensity (a.u.).

As for “TCTCTCCCCGCCTCCTCGCGGTGTCTGCCTCTCTCTCTCGCGGAGTCACCTAGTGCAG”, the binding signal is 9940 fluorescence intensity (a.u.).

Turning to “TATGATATGTGTGCCTCAGTTGTTGTGCTTGCTGATGTGTCGGAGTCACCTAGTGCAG”, the binding signal was 9730 fluorescence intensity (a.u.).

Take “CAGGTGTTTGTCTGCTAGTTCATGTAGCGTTGTGAGCATCCGGAGTCACCTAGTGCAG”: the binding signal is 8060 fluorescence intensity (a.u.).

With “AAACCCTTTTTTTCCCTTTAATTCTCATGTAAATTATTATCGGAGTCACCTAGTGCAG”, the binding signal was 8180 fluorescence intensity (a.u.).

Turning to “GGTCATTCGTTCGTTGTTTTAACAGTTTGTTTTTTTTATACGGAGTCACCTAGTGCAG”, the binding signal was 9340 fluorescence intensity (a.u.).

Regarding “AGGAGGATGTTGAAGGAAGATGTGGATATTTATATCCAATCGGAGTCACCTAGTGCAG”, the binding signal was 10100 fluorescence intensity (a.u.).

Regarding “ATCCCGGATAGCTACCTGTGCTTCAATTCCTCTGCAAATCCGGAGTCACCTAGTGCAG”, the binding signal is 8230 fluorescence intensity (a.u.).

Regarding “AGAAACCGAAACCTGCAAAATTTTCAGCGATCATTTCAGTCGGAGTCACCTAGTGCAG”, the binding signal was 8580 fluorescence intensity (a.u.).

As for “CCACATGGCCACACCCACACTCTCTCCTTCTCTTGGGCTCCGGAGTCACCTAGTGCAG”, the binding signal is 11500 fluorescence intensity (a.u.).

As for “TCTGCAACTGGTCTACACAGGCATCATTTCCACGCTTGACCGGAGTCACCTAGTGCAG”, the binding signal is 10300 fluorescence intensity (a.u.).

“CATGCATGGTCCCTCACTGATCTCTTATCTCTTTCTACATCGGAGTCACCTAGTGCAG”: the binding signal is 9370 fluorescence intensity (a.u.).

“ACGACTTAATCACACTGTTTTTTCTCTCCCGAGTACTTAACGGAGTCACCTAGTGCAG”: the binding signal was 12100 fluorescence intensity (a.u.).

In the case of “CCATATACCGTTCTGGCCCATACGATTTTTTTTGATCGGTCGGAGTCACCTAGTGCAG”, the binding signal is 9210 fluorescence intensity (a.u.).

With “TCTTGATTTATTTTAGGACGGGTGGGTAGTTTTCTGCGTTCGGAGTCACCTAGTGCAG”, the binding signal was 11400 fluorescence intensity (a.u.).

For the sequence “ACCGCGCTCTACTCCTCCACCTCGTCGTCCTCCTCCTCCGCGGAGTCACCTAGTGCAG”, the binding signal is 9320 fluorescence intensity (a.u.).

In the case of “CTTTCCATGGTTTTTGCTCCCGCAGCCCGGGCCACTGCCCCGGAGTCACCTAGTGCAG”, the binding signal is 11600 fluorescence intensity (a.u.).

On to “GCGAGGTCGGGGAGGTGGGTGCACAGTGCCCTGCGAGATGCGGAGTCACCTAGTGCAG”, for which the binding signal was 8120 fluorescence intensity (a.u.).

For the sequence “TTCCGTCTTCTTCCTTCCTTCTCCATCTTCTTCGTGGCCACGGAGTCACCTAGTGCAG”, the binding signal was 9170 fluorescence intensity (a.u.).

Regarding “CTCTGTTCTATAATGTACTCCCTCCGGTTCTATAATAATTCGGAGTCACCTAGTGCAG”, the binding signal was 8720 fluorescence intensity (a.u.).

Regarding “TTGACGGAGCATCTATACCCGGTTTTGTAGTTCATGAACACGGAGTCACCTAGTGCAG”, the binding signal was 9100 fluorescence intensity (a.u.).

Regarding “GCTCCCTTGTGTGACAACGCCGATCCTCACCTACACCTTCCGGAGTCACCTAGTGCAG”, the binding signal was 10200 fluorescence intensity (a.u.).

“GCGTCACATCGCTTGTGAGTTCGTCTCGTCGGCTTACTTACGGAGTCACCTAGTGCAG”: the binding signal was 8600 fluorescence intensity (a.u.).

Turning to “AATCTTTTAGCGGCTCATAGTCATCTTCTCCAACCGCCGTCGGAGTCACCTAGTGCAG”, the binding signal is 8370 fluorescence intensity (a.u.).

For the sequence “CCGTTACCGCGAAATCAAAATGCCTGCCCCGCCACTTTTTCGGAGTCACCTAGTGCAG”, the binding signal was 8970 fluorescence intensity (a.u.).

As for “CTCATCATTCCTAACCATTTTCTCGGCCACCCATCTATCTCGGAGTCACCTAGTGCAG”, the binding signal was 9810 fluorescence intensity (a.u.).

In the case of “ACAAATAATTGTTTTCGTTGGTTGCGCACTTTATATATACCGGAGTCACCTAGTGCAG”, the binding signal was 9420 fluorescence intensity (a.u.).

With “TTTGACGCCGTTGACTTTTTTAAAAATGTTTGACCGTTCACGGAGTCACCTAGTGCAG”, the binding signal was 25100 fluorescence intensity (a.u.).

As to “CGTCACATGCCTTCTGATTCGGTTTGTTCTGGCCTTCTTGCGGAGTCACCTAGTGCAG”, the binding signal was 9810 fluorescence intensity (a.u.).

Turning to “TATGAATGTTGTTGTGTTAGTATACGTATCCGTGATGTATCGGAGTCACCTAGTGCAG”, the binding signal was 9210 fluorescence intensity (a.u.).

Turning to “AGCCTAGGCTGACGAGCTCGCTCGAGCTCGGCTCGTTGACCGGAGTCACCTAGTGCAG”, the binding signal was 9610 fluorescence intensity (a.u.).

On to “CATACTCCCTCTATTTTATATTGTAAGTTATTTTGATTCTCGGAGTCACCTAGTGCAG”, for which the binding signal is 8220 fluorescence intensity (a.u.).

With “AGTAGTAGTAGGGCTTTGCTCTGGTCTTGCAAGTTAGGTTCGGAGTCACCTAGTGCAG”, the binding signal is 8230 fluorescence intensity (a.u.).

“CCCTAAATATTTGACACCGTTGACTTTTTTAAATATGTTTCGGAGTCACCTAGTGCAG”: the binding signal is 39600 fluorescence intensity (a.u.).

Take “GATACTACAACGACGACGCCTGGCGATGGGTGGGGAGAAGCGGAGTCACCTAGTGCAG”: the binding signal is 9070 fluorescence intensity (a.u.).

Consider “CCTCACCCGCACCCACCACCACCAACCTCCCACCCCACAACGGAGTCACCTAGTGCAG”, for which the binding signal is 10300 fluorescence intensity (a.u.).

Take “AACCTTTCCAAGATGCAAAGTTGCACCGCCAAACATCTATCGGAGTCACCTAGTGCAG”: the binding signal is 8180 fluorescence intensity (a.u.).

Consider “TCTGTTATATTTACTATCCATACTATACGTGTAAATTTTACGGAGTCACCTAGTGCAG”, for which the binding signal is 10200 fluorescence intensity (a.u.).

As for “TTTTGTCTACTGCGCCTACCACGCCGTTGTCCACTACCTCCGGAGTCACCTAGTGCAG”, the binding signal was 10400 fluorescence intensity (a.u.).

With “TGATTGAATGATTGCTCACTGTGTACTTGTTATTTTAATCCGGAGTCACCTAGTGCAG”, the binding signal was 11500 fluorescence intensity (a.u.).

On to “CGCACATTTATACACTGCTATTCGTGTTCTTTTCAAGTTACGGAGTCACCTAGTGCAG”, for which the binding signal was 15000 fluorescence intensity (a.u.).

Take “TTCGTCCCCTTCCTCGCTTCCACGCCAAAAGTCGTTCGCTCGGAGTCACCTAGTGCAG”: the binding signal is 8660 fluorescence intensity (a.u.).
